In patent publication US20010033888A1, “Crystalline trehalose dihydrate, its preparation and uses” (KABUSHIK KAISHA HAYASHIBARA SEIBUTS KAGAKU KENKYUJO, priority 1998, published 2001):
Some of these results come from one statement about several compounds together. At least one compound was matched to its structure with a doubt left.

Experiment: Intrusion disruptive strength by rheometer (needle about 3 mm in diameter)
Assay type: physicochemical
Conditions: stage elevated at 6 cm/min, three specimens each, strength when needle ruptures the crystal, dihydrate
Experimental: As a representative polyhedral crystalline trehalose dihydrate having the c axis of about 10 mm, obtained by the methods in the later described Examples A-1 and A-2, three specimens with a tetradodecahedral crystalline structure were used and examined for the crystallinity by powdery X-ray diffraction analysis and the intrusion disruptive strength by rheometer. The crystallinity was determined by pulverizing a specimen and applying the Ruland method in Acta Crystallographica, Vol. 14, p. 1,180 (1961) using “GEIGERFLEX RAD-IIB”, an X-ray diffraction analyzer using Cuka ray commercialized by Rigaku Corporation, Tokyo, Japan, based on the powdery X-ray diffraction intensity. Using “FUDOH RHEO METER NRM-2010J-CW”, a rheometer commercialized by Rheotech Co., Ltd., Tokyo, Japan; and a needle, about 3 mm in diameter, as an adaptor, the intrusion disruptive strength was determined by placing a polyhedral crystal on a specimen stage, elevating the stage to the direction of the needle at a rate of 6 cm/min, and measuring the strength (kg) when the needle intrudes into and ruptures the polyhedral crystal. As a control, commercially available crystal sugar with a size equivalent to those of the specimens was examined similarly as above.

Intrusion disruptive strength | SMILES
3.5 to 4.3 kg | O.O.OC[C@H]1O[C@H](O[C@H]2O[C@H](CO)[C@@H](O)[C@H](O)[C@H]2O)[C@H](O)[C@@H](O)[C@@H]1O [Example A-2, crystalline trehalose dihydrate]
3.5 to 4.3 kg | O.O.OC[C@H]1O[C@H](O[C@H]2O[C@H](CO)[C@@H](O)[C@H](O)[C@H]2O)[C@H](O)[C@@H](O)[C@@H]1O [Example A-1, crystalline trehalose dihydrate]
